Measurements from paper PMC5823669, “Multi-chaperone function modulation and association with cytoskeletal proteins are key features of the function of AIP in the pituitary gland” (Oncotarget, 2018).

Protein sequences, listed by entry. Tags and fused reporters are not part of them. Residues count along the entry.
UniProt P48721, residues 47-679: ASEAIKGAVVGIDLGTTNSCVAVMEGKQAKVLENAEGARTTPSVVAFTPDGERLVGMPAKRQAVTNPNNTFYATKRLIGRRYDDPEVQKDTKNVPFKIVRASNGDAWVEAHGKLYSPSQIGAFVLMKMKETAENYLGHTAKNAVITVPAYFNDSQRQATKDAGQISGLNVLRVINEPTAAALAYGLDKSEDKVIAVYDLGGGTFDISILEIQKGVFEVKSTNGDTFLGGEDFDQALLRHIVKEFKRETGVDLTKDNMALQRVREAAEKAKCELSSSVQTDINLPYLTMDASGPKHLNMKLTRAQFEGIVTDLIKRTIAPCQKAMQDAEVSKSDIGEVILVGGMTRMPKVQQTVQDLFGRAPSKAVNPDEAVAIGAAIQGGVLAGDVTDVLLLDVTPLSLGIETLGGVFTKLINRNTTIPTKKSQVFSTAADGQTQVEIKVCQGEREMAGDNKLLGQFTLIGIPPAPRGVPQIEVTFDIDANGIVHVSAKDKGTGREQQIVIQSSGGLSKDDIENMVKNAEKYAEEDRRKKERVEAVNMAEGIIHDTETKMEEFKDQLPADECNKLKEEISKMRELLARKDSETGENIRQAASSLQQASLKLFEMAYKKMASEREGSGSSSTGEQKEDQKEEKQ

Legend:
Assay in all cases: affinity purification with mass spectrometry; GST pull-down: 10 ug of purified GST-AIP bait (WT or variant) against 2 mg total protein of GH3 cell lysate; eluates of four experiments pooled; TMTsixplex labelling, Orbitrap MS; peptide intensities minus the GST control, variants given as fold of the WT experiment (WT = 1); only the target purified
[1] = target: T1, GST-tagged human AIP p.R304* (human, UniProt O00170 1-303)
T1 construct: AIP, human, UniProt O00170; natural nonsense variant c.910C>T, p.R304*: stop codon in place of R304, truncated protein ending at residue 303; The C-terminal limit 303 follows from the printed p.R304*; also called GST-AIP R304*; not shown: GST, N-terminal, kept
T1 sequence (looked up): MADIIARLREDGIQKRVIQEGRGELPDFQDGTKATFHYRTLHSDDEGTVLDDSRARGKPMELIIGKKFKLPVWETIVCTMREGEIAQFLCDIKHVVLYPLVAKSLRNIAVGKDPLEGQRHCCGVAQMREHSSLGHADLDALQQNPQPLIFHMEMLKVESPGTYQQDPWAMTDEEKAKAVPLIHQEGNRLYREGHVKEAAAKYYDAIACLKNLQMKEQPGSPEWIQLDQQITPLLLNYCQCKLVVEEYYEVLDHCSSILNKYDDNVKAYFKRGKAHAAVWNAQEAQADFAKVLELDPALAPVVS

[2] = target: T2, GST-tagged human AIP p.A299V (human, UniProt O00170 1-330, p.A299V)
T2 construct: AIP, human, UniProt O00170; also called GST-AIP A299V; not shown: GST, N-terminal, kept
T2 sequence (looked up): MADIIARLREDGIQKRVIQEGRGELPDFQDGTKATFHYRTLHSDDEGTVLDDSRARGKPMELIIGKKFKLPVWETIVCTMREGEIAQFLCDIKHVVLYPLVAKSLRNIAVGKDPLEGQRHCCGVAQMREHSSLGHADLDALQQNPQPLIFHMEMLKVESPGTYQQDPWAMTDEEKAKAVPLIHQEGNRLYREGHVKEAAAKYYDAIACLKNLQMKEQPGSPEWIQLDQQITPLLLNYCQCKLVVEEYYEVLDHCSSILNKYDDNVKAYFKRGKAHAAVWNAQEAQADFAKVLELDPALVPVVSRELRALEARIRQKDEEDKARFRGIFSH

[3] = target: T3, GST-tagged human AIP p.R304Q (human) (UniProt O00170)
T3 sequence: T2 sequence (looked up) with V299A, R304Q

[4] = target: T4, GST-tagged human AIP p.K266A (human) (UniProt O00170)
T4 sequence: T2 sequence (looked up) with K266A, V299A

[5] = target: T5, GST-tagged human wild-type AIP (aryl hydrocarbon receptor interacting protein) (human) (UniProt O00170)
T5 sequence: T2 sequence (looked up) with V299A

Measured: binding

GRP75_RAT Stress-70 protein, mitochondrial (Hspa9) (from UniProt P48721 47-679)
binds: all assays above

Substitutions are numbered along the chain they refer to. These are yes or no findings as the source states them, for the method shown. Binding seen in cells or lysates may run through a third protein. A yes stands for co-enrichment or nearness to the bait. Other partners may have been found. Sequences can lack the tags named with a protein.
